# Laboratory results as given in patent US20230175044.
# The chains behind the UniProt entries cited, without tags or fusion partners. Where a name states a change or a piece, a line headed by the entry shows the natural chain unless it says otherwise.
# UniProt P04390: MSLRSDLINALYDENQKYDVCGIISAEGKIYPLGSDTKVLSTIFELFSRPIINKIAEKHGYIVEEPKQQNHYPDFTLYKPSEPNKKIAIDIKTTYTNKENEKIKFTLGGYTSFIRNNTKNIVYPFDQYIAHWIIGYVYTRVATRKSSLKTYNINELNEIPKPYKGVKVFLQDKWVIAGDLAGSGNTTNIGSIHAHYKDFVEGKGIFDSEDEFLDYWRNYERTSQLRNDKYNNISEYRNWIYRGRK
# For part of these data: Protein sequences can lack the tags named with them. For part of these data: Construct, isoform or probe ends are uncertain for at least one entry.
# Tests used:
# Test in all cases: enzyme reaction in vitro
# AciI = settings: electrochemical turn-on; PURExpress, 37 C; orthogonal to other nine duplexes (FIG. 3G); protein translated in vitro; label: 3' methylene blue on reporter; only the site is given
# BsaAI = settings: electrochemical turn-on; PURExpress, 37 C; little crosstalk; protein translated in vitro; label: 3' methylene blue on reporter; only the site is given
# ClaI = settings: electrochemical turn-on; PURExpress, 37 C; little crosstalk; protein translated in vitro; label: 3' methylene blue on reporter; only the site is given
# HincII = target: T1, HincII (UniProt P17743); settings: electrochemical turn-on; PURExpress, 37 C; little crosstalk; protein translated in vitro; label: 3' methylene blue on reporter; only the site is given
# T1 sequence (looked up, limits assumed): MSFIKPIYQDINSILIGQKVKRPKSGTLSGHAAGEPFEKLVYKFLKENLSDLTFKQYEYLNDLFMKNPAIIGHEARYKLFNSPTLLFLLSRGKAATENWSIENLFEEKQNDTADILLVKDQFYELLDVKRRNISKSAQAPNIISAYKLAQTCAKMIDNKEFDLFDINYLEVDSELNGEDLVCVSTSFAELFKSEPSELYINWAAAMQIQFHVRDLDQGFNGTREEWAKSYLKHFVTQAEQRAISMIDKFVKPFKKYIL
# BglII = target: T2, BglII (UniProt Q45488); settings: electrochemical turn-on; PURExpress, 37 C; little crosstalk; protein translated in vitro; label: 3' methylene blue on reporter; only the site is given
# T2 sequence (looked up, limits assumed): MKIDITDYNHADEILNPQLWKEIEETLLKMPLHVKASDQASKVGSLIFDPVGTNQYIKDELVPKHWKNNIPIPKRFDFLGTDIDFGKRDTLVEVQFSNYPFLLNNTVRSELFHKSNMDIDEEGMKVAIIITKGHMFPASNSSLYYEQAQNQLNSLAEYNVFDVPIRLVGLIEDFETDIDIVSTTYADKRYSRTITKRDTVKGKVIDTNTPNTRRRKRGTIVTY
# BanII = settings: electrochemical turn-on; PURExpress, 37 C; little crosstalk; protein translated in vitro; label: 5' methylene blue on reporter; only the site is given
# EcoRV = EcoRV (UniProt P04390); settings: electrochemical turn-on; PURExpress, 37 C; little crosstalk; protein translated in vitro; label: 3' methylene blue on reporter; only the site is given
# NcoI = settings: electrochemical turn-on; PURExpress, 37 C; little crosstalk; protein translated in vitro; label: 3' methylene blue on reporter; only the site is given
# BstEII = target: T3, BstEII (UniProt E5Q8U2); settings: electrochemical turn-on; PURExpress, 37 C; little crosstalk; protein translated in vitro; label: 3' methylene blue on reporter; only the site is given
# T3 sequence (looked up, limits assumed): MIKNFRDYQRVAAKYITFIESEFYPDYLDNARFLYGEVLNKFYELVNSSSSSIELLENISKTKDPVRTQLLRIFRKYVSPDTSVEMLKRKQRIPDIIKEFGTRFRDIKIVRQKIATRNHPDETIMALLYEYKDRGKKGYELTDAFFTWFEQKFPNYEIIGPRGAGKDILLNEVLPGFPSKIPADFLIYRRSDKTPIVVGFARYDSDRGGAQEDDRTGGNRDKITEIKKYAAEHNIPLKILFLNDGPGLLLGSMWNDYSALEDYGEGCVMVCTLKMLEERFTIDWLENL
sequence,measurement,setting,value
CGGACGTGAACCGCGGTGTACTGCTAG / CTAGCAGAACACCGCGGTTCACGTCCG [AciI reporter/inhibitor duplex],activity on this sequence,AciI,active
TGCACGTGAGCTCACGTATGATCCCTACG / CGTAGGGATAATACGTGAGCTCACGTGCA [BsaAI reporter/inhibitor duplex],activity on this sequence,BsaAI,active
CGGTGCTGAGTCATCGATTGTTCAGTTGC / GCAACTGTACAATCGATGACTCAGCACCG [ClaI reporter/inhibitor duplex],activity on this sequence,ClaI,active
TCGCTCAGGATCGTCAACAGTACCTCGAC / GTCGAGGTAATGTTGACGATCCTGAGCGA [HincII reporter/inhibitor duplex],activity on this sequence,HincII,active
ACTGGACGTGCTTAGATCTAGTTCTCAAGC (double strand) [BglII reporter/inhibitor duplex],activity on this sequence,BglII,active
GCATACTCGAGGAGCCCCACGTTCTCAGT (double strand) [BanII reporter/inhibitor duplex],activity on this sequence,BanII,active
GTCTCCTCGACGGATATCAAATCCAGGCA / TGCCTGGATTAGATATCCGTCGAGGAGAC [EcoRV reporter/inhibitor duplex],activity on this sequence,EcoRV,active
CCATATGCTGCACCATGGTCACGTGTTCG (double strand) [NcoI reporter/inhibitor duplex],activity on this sequence,NcoI,active
GCGAGGTCATCGGGTCACCATGACGATGTG / CACATCGACATGGTGACCCGATGACCTCGC [BstEII reporter/inhibitor duplex],activity on this sequence,BstEII,active
